PubChem BioAssay AID1259254 | NCATS – 2017
Test: 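Gene knock-downs that lead to re-replication, shown by excess G2 DNA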 (primary screen). Cell system: human HCT116 colorectal cancer cells. Knock-down reagent: single siRNA against human genes. Time to read-out: 3 days. Read-out: 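Nuclei stained with Hoechst and imaged; cell-cycle phase assigned by DNA content; G2 share scaled per plate, non-targeting siRNA 0%, GMNN siRNA 100%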. Direction: G2 robust z-score and G2 cells, % of GMNN control: higher = more G2 cells, more excess DNA replication. Rule for the call: 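An siRNA counts as active if its G2 robust z-score lies at least 5 MADs above the screen median; here such calls match roughly 38% of GMNN control or more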.
In all, the deposit lists about 59,000 reagents; this is a part drawn at random. About 1,550 of all reagents (2.6%) count as active. 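G2 share is only a proxy for re-replication; each gene was hit by three separate siRNAs, and active genes were retested.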 Not all columns of the deposit are shown. Not stated in the record: the amount of reagent.

After knock-down of AQP7 (GeneID 364) [SID160719319], the record shows G2 robust z-score 1.07; G2 cells, % of GMNN control 10.5; inactive.
Knock-down of AQP7 (GeneID 364) [SID160719329] resulted in: G2 robust z-score 2.02; G2 cells, % of GMNN control 17.1; inactive.
Knock-down of AQP7 (GeneID 364) [SID160719339] gave: G2 robust z-score 1.79; G2 cells, % of GMNN control 15.5; inactive.
Depletion of KCNK1 (GeneID 3775) [SID160731165] gave: G2 robust z-score 0.624; G2 cells, % of GMNN control 7.36; inactive.
Against KCNK1 (GeneID 3775) [SID160776210], the entry reads G2 robust z-score 0.219; G2 cells, % of GMNN control 4.51; inactive.
KCNK1 (GeneID 3775) [SID160776211] scored G2 robust z-score 0.044; G2 cells, % of GMNN control 3.28; inactive.
Silencing of MUC15 (GeneID 143662) [SID160758053] gave: G2 robust z-score 0.292; G2 cells, % of GMNN control 5.02; inactive.
Silencing of MUC15 (GeneID 143662) [SID160758054] resulted in: G2 robust z-score -0.645; G2 cells, % of GMNN control -1.57; inactive.
Knock-down of MUC15 (GeneID 143662) [SID160758055] resulted in: G2 robust z-score 0.364; G2 cells, % of GMNN control 5.53; inactive.
Depletion of GTF2IRD2 (GeneID 84163) [SID160751811] gave: G2 robust z-score 2.12; G2 cells, % of GMNN control 17.9; inactive.
GTF2IRD2 (GeneID 84163) [SID160751812] showed G2 robust z-score 0.105; G2 cells, % of GMNN control 3.71; inactive.
GTF2IRD2 (GeneID 84163) [SID160751813] showed G2 robust z-score 5.25; G2 cells, % of GMNN control 39.9; active.

Limited to “G2 robust z-score” (3 entries from above):
AQP7 (GeneID 364) [SID160719319]	1.07
AQP7 (GeneID 364) [SID160719329]	2.02
AQP7 (GeneID 364) [SID160719339]	1.79

Further records:
Against GADD45GIP1 (GeneID 90480) [SID160724688] the deposit lists G2 robust z-score -0.784; G2 cells, % of GMNN control -2.55; inactive.
With knock-down of GADD45GIP1 (GeneID 90480) [SID160724690] the results were G2 robust z-score -0.86; G2 cells, % of GMNN control -3.08; inactive.
For GADD45GIP1 (GeneID 90480) [SID160724691], the entry reads G2 robust z-score 2.1; G2 cells, % of GMNN control 17.8; inactive.
Depletion of TBPL1 (GeneID 9519) [SID160722402] gave: G2 robust z-score -0.698; G2 cells, % of GMNN control -1.95; inactive.
After knock-down of TBPL1 (GeneID 9519) [SID160722403], the record shows G2 robust z-score 3.5; G2 cells, % of GMNN control 27.6; inactive.
For TBPL1 (GeneID 9519) [SID160722404], the values are G2 robust z-score -0.664; G2 cells, % of GMNN control -1.7; inactive.
After knock-down of SLC7A10 (GeneID 56301) [SID160745020], the record shows G2 robust z-score 1.61; G2 cells, % of GMNN control 14.3; inactive.
Silencing of SLC7A10 (GeneID 56301) [SID160745021] came out at: G2 robust z-score -0.258; G2 cells, % of GMNN control 1.15; inactive.
SLC7A10 (GeneID 56301) [SID160745022] scored G2 robust z-score -0.97; G2 cells, % of GMNN control -3.86; inactive.
After knock-down of TGFBRAP1 (GeneID 9392) [SID160722106] the results were G2 robust z-score 1.99; G2 cells, % of GMNN control 17; inactive.
For TGFBRAP1 (GeneID 9392) [SID160722107], the values are G2 robust z-score 0.0904; G2 cells, % of GMNN control 3.6; inactive.
For TGFBRAP1 (GeneID 9392) [SID160722108] the deposit lists G2 robust z-score -0.487; G2 cells, % of GMNN control -0.456; inactive.
